The source of these data is PMC11077861.

Sequences of proteins named here, by UniProt entry; tags and fusion partners are left off. Residues count along the entry.
UniProt P06733: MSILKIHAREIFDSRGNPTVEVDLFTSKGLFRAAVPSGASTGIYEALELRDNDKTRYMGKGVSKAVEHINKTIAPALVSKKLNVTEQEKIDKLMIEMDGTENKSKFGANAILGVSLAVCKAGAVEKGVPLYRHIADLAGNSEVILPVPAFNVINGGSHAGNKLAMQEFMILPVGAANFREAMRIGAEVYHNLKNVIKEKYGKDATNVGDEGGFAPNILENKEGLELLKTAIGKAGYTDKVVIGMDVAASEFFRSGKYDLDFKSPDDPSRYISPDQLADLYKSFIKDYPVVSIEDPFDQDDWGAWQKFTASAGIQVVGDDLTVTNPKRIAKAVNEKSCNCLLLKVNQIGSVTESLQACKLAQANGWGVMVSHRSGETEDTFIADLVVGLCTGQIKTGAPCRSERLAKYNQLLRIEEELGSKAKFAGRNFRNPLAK
UniProt P10809, residues 27-573: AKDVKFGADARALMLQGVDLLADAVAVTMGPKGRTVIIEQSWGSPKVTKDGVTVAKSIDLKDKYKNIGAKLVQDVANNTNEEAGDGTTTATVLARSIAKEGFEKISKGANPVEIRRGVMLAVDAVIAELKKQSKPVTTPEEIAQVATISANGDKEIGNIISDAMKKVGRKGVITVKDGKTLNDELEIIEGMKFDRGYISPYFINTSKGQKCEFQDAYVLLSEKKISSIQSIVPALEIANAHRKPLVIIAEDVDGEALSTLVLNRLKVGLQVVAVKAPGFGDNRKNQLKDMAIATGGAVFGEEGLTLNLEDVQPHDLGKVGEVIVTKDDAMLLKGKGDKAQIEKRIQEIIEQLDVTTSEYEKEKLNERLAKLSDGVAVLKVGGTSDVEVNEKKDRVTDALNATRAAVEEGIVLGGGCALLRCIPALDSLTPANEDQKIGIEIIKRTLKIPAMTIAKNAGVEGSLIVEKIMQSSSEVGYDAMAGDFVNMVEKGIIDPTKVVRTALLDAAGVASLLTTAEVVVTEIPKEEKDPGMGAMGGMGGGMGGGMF
UniProt P35579: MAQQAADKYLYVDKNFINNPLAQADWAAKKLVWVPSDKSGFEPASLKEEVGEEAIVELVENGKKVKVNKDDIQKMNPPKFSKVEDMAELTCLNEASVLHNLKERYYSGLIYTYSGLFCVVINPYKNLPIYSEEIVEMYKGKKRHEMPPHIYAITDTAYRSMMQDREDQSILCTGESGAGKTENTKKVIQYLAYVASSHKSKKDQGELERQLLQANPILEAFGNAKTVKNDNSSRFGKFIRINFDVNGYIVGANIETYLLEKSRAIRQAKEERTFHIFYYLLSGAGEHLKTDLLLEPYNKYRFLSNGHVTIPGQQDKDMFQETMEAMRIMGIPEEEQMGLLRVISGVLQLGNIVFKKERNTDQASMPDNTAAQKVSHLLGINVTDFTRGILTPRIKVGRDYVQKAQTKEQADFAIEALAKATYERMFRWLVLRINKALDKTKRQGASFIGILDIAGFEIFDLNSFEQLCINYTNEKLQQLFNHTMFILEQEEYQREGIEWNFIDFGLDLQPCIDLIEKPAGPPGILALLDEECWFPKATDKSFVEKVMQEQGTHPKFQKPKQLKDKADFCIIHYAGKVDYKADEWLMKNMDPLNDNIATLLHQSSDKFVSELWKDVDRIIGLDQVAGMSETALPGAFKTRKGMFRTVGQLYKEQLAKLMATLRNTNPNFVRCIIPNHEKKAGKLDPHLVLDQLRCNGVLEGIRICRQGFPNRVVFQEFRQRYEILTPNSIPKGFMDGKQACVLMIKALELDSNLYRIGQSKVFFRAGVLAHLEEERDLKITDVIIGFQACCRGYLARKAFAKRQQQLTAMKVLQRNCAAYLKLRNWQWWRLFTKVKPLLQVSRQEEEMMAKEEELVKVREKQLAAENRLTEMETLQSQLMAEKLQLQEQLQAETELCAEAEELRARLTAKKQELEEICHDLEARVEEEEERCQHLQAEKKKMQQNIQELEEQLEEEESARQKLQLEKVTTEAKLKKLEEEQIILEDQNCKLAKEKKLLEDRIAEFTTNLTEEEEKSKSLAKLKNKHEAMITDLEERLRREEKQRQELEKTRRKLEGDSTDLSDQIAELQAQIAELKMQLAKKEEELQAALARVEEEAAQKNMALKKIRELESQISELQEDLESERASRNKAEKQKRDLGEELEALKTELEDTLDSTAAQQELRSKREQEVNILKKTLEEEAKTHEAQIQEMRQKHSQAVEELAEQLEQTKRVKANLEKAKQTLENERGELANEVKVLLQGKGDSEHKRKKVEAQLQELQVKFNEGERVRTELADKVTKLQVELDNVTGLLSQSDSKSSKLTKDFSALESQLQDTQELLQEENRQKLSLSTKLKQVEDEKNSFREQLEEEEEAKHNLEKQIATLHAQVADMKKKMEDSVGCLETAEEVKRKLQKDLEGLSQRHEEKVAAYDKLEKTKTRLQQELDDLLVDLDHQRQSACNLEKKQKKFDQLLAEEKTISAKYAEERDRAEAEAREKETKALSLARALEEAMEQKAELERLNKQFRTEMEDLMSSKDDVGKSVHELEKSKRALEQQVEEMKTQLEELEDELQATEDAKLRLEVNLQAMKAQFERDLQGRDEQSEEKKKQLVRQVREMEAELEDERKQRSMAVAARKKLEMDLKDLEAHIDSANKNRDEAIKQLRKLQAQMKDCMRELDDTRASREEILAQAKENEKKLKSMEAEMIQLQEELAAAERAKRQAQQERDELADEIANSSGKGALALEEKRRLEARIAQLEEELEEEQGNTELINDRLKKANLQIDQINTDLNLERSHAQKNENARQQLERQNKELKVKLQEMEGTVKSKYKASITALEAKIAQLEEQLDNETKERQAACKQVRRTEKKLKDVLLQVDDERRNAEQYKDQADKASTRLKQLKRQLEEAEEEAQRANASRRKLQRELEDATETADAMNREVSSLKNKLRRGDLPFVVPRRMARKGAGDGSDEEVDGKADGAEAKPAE
UniProt P14618: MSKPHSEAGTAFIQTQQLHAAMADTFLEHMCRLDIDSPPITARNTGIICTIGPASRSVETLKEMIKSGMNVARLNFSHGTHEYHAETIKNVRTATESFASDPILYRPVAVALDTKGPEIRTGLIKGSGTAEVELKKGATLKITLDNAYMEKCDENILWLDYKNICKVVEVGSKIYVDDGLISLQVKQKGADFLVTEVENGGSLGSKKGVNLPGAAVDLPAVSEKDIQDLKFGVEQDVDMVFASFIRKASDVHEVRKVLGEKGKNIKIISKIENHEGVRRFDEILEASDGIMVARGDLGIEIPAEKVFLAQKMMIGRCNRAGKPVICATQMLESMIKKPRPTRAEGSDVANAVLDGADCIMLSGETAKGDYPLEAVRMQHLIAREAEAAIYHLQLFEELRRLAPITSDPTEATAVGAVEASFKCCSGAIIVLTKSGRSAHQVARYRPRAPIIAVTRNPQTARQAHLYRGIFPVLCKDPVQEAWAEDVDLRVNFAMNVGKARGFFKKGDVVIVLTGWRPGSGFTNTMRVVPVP

Where two headings read alike, the source gives them in different places. These are yes or no findings as the source states them, for the method shown. Binding seen in cells or lysates may run through a third protein. A yes stands for co-enrichment or nearness to the bait. Other partners may have been found. Sequences can lack the tags named with a protein.

Experiment [1] concerns the target T1, ESM1 overexpressed in ovarian cancer cells (Flag-tagged) (human) (UniProt Q9NQ30).
T1 sequence: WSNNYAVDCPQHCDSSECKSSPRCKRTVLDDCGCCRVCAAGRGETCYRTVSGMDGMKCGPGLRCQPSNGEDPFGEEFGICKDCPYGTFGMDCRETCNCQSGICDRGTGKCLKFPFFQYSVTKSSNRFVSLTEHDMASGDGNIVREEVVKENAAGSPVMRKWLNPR
The experiment in a line: affinity purification with mass spectrometry; ESM1-interacting complexes isolated from CAOV3 and OV90 cells with anti-Flag monoclonal antibodies and paramagnetic beads; SDS-PAGE, LC-MS/MS (QExactive).

For experiment [2], the target named is T1, ESM1 overexpressed in ovarian cancer cells (Flag-tagged) (human). The experiment is described as above. This is another data set of the same source.

Consider “ENO1 (from UniProt P06733 1-434) (enzyme)”, for which the binding entry in experiment [1] is listed as “binds”.
Same read-out and setting: under HSPD1 (from UniProt P10809 27-573) stands “binds”; under MYH9 (from UniProt P35579 1-1960), “binds”.
Same read-out and setting: the same measure for PLEC (from UniProt Q15149 1-4684): “binds”; for “Pyruvate kinase isozyme M2 (PKM2), endogenous (from UniProt P14618 1-531) (enzyme)”: “binds”.

B1: Ubiquitin-like modifier-activating enzyme 2 (UBA2), endogenous (enzyme, UniProt Q9UBT2 1-640)
chain: MALSRGLPRELAEAVAGGRVLVVGAGGIGCELLKNLVLTGFSHIDLIDLDTIDVSNLNRQFLFQKKHVGRSKAQVAKESVLQFYPKANIVAYHDSIMNPDYNVEFFRQFILVMNALDNRAARNHVNRMCLAADVPLIESGTAGYLGQVTTIKKGVTECYECHPKPTQRTFPGCTIRNTPSEPIHCIVWAKYLFNQLFGEEDADQEVSPDRADPEAAWEPTEAEARARASNEDGDIKRISTKEWAKSTGYDPVKLFTKLFKDDIRYLLTMDKLWRKRKPPVPLDWAEVQSQGEETNASDQQNEPQLGLKDQQVLDVKSYARLFSKSIETLRVHLAEKGDGAELIWDKDDPSAMDFVTSAANLRMHIFSMNMKSRFDIKSMAGNIIPAIATTNAVIAGLIVLEGLKILSGKIDQCRTIFLNKQPNPRKKLLVPCALDPPNPNCYVCASKPEVTVRLNVHKVTVLTLQDKIVKEKFAMVAPDVQIEDGKGTILISSEEGETEANNHKKLSEFGIRNGSRLQADDFLQDYTLLINILHSEDLGKDVEFEVVGDAPEKVGPKQAEDAAKSITNGSDDGAQPSTSTAQEQDDVLIVDSDEEDSSNNADVSEEERSRKRKLDEKENLSAKRSRIEQKEELDDVIALD
Take B1: the binding result in experiment [2] is “binds”.
